Laboratory results published in PMC6051671.
No constants are given. Whether binding was seen depends on the method and setting. For some of these results: In cells and extracts the contact can be indirect. Some entries that bind do so weakly or less than the wild type.

Protein sequences, listed by entry. Tags and fused reporters are not part of them.
UniProt P10238: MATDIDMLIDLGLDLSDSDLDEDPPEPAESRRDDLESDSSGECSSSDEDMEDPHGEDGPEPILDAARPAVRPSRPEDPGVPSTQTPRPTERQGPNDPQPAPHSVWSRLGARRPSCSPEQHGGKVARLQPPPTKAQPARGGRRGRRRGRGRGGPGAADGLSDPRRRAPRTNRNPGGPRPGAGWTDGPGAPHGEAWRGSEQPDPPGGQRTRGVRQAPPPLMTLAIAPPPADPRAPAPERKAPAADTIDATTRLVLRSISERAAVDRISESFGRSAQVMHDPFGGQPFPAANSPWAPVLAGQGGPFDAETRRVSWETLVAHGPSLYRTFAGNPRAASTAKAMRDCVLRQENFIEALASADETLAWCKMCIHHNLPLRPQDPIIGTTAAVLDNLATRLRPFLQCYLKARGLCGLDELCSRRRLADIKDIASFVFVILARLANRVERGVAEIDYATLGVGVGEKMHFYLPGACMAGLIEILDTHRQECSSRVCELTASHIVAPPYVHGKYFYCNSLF
UniProt P16749: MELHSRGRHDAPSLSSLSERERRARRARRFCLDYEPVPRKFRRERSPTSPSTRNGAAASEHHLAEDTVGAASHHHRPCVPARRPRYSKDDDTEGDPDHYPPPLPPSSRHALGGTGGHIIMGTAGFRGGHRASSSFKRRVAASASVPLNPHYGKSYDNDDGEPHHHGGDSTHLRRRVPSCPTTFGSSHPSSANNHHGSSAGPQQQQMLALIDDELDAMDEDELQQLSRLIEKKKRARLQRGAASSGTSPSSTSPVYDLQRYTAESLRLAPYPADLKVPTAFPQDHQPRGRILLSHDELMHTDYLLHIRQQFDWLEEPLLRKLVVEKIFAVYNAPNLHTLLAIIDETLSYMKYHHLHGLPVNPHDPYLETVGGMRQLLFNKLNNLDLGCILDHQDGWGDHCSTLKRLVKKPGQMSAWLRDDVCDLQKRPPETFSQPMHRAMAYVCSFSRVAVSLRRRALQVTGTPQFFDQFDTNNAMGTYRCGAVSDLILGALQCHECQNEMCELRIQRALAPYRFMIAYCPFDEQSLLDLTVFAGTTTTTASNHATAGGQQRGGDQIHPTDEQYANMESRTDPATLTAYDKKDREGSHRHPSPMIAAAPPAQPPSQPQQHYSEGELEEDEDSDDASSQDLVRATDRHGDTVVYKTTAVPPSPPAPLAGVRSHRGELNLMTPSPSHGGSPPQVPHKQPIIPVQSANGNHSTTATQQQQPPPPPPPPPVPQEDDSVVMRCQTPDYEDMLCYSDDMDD

Columns and labels:
[1] = target: GST-SUMO2 (pGEX2T-SUMO2) (UniProt P61956); test: pull-down; both purified
[2] = target: GST-SUMO1 (pGEX2T-SUMO1) (UniProt P63165); test: pull-down; both purified
[3] = target: GST-Ubc9 (pGEX2T-Ubc9) (UniProt P63279); test: pull-down; both purified
[4] = target: endogenous Ubc9 (E2 SUMO-conjugating enzyme) (human (endogenous in 293T)) (UniProt P63279); test: co-IP
[5] = target: His6-SUMO1 (integrated copies in HeLa cells) (human) (UniProt P63165); test: pull-down
[6] = target: His6-SUMO2 (integrated copies in HeLa cells) (human) (UniProt P61956); test: pull-down

Substance | binding [1] | binding [2] | binding [3] | binding [4] | binding [5] | binding [6]
His6-SM-3FLAG (pET15b-SM-3FLAG) (from UniProt Q04360 1-479) | binds |  |  |  |  | 
His6-UL54-3FLAG (pET15b-UL54-3FLAG) (from UniProt P10238 1-512) | binds | binds | binds |  |  | 
CMV UL69 with C-terminal triple FLAG tag (pCMV3FC-UL69) (from UniProt P16749 1-744) |  |  |  | binds | binds | binds
His6-UL69-3FLAG (pET15b-UL69-3FLAG) (from UniProt P16749 1-744) | binds | binds | binds |  |  | 
HSV-1 UL54/ICP27 with C-terminal triple FLAG tag (pCMV3FC-UL54) (from UniProt P10238 1-512) |  |  |  | binds | binds | binds
EBV SM with C-terminal triple FLAG tag (pCMV3FC-SM) (from UniProt Q04360 1-479) |  |  |  | binds | binds | binds
